Test results reported in article PMC12431657, “Discovery and mechanistic insights of dibenzoylmethane as a broad spectrum inhibitor of coronavirus” (PLOS Pathogens, 2025).
Structures can show the parent of a compound that is named as a salt. Where two headings read alike, the source gives them in different places. The whole screen tested about 3,300 compounds, of which about 95 (3%) showed an effect of 50% or more. Some of the results follow.

Test system: HCoV-229E
Design: species or system Huh-7; HTS, protection from HCoV-229E induced cell death, luminescent cell viability (CellCounting-Lite 2.0), inhibition rate
Settings: 24 h post infection, 1 h compound pre-incubation, 10 µM, inhibitor

Structure (SMILES)	229E Inhibition rate [%]	229E Inhibition rate (229E Inhibition rate, 24 h) [%]
NC(N)=NOCC[C@H](N)C(=O)O [L-Canavanine sulfate]	10.7	–
Cc1ccc2[nH]c3ccccc3c2c1 [3-Methylcarbazole]	7.9	–
O=c1ccc2nccc3c4ccccc4n1c23 [Canthin-6-one]	19.5	–
CN1C(=O)CC[C@H]1c1cccnc1 [Cotinine]	7	–
O=C(O[C@@H]1[C@@H](O)[C@H](Oc2cc(O)c(C(=O)CCc3ccccc3)c(O)c2)O[C@@H]2COC(=O)c3cc(O)c(O)c(O)c3-c3c(cc(O)c(O)c3O)C(=O)O[C@@H]12)c1cc(O)c(O)c(O)c1 [Thonningianin A]	2.9	–
N[C@@H](Cn1oc(=O)[nH]c1=O)C(=O)O [Quisqualic acid]	41.8	–
Cc1cc(=O)c2c(O)c3c(O)cc(O)c4c5c(O)cc(O)c6c(O)c7c(=O)cc(C)cc7c(c65)c(c2c1)c34 [Protohypericin]	49.2	–
CC(=O)c1ccc[nH]1 [2-Acetylpyrrole]	51.6	–
CO[C@@H]1[C@H](OC(=O)/C=C/C=C/C=C/C=C/C(=O)O)CC[C@]2(CO2)[C@H]1[C@@]1(C)O[C@@H]1CC=C(C)C [Fumagillin]	17.1	–
COc1cc(CCC(=O)O)ccc1O [Dihydroferulic acid]	28.8	–
CCCCCCCCCCCCCCCCCC(=O)OC [Methyl stearate]	17.9	–
CC1=C\[C@@H](O)CC(=O)Cc2nc(co2)C(=O)N2CCC=C2C(=O)O[C@H](C(C)C)[C@H](C)/C=C/C(=O)NC\C=C\1 [Virginiamycin M1]	36.6	–
COc1c(/C=C/C(=O)c2ccc(O)c(CC=C(C)C)c2)ccc(O)c1O [Licochalcone D]	3.4	–
CC(C)=CC1CC(O)(C2CCC3(C)C2CCC2C4(C=O)CCC(OC5OCC(O)C(OC6OCC(O)C(O)C6O)C5OC5OC(C)C(O)C(O)C5O)C(C)(C)C4CCC23C)C(O)O1 (centres unmarked) [Gypenoside A]	11.3	–
O=C1C=CC[C@@H]2[C@H]3CCCN4CCC[C@@H](CN12)[C@@H]34 [Sophocarpine (monohydrate)]	–	23.9
CCCCC[C@H](O)/C=C/[C@H]1[C@H](O)CC(=O)[C@@H]1C/C=C\CCCC(=O)O [Prostaglandin E2]	27.2	–
COc1cc(C(=O)O)ccc1O [Vanillic acid]	50	–
C=C(C)[C@@H]1CC[C@]2(CO)CC[C@]3(C)[C@H](CC[C@@H]4[C@@]5(C)CC[C@H](O)C(C)(C)[C@@H]5CC[C@]43C)[C@@H]12 [Betulin]	3.8	–
O[C@H]1[C@H](O)[C@@H](O)[C@H](O)[C@@H](O)[C@H]1O [i-Inositol]	17.8	–

Structure (SMILES)	229E Inhibition rate [%]	229E Inhibition rate (229E Inhibition rate, 24 h) [%]
C[C@@H](CO[C@@H]1O[C@H](CO)[C@@H](O)[C@H](O)[C@H]1O)[C@@H]1CC[C@@]2(CC[C@]3(C)[C@H](CC[C@@H]4[C@@]5(C)CC[C@H](O[C@@H]6O[C@H](CO)[C@@H](O)[C@H](O)[C@H]6O[C@@H]6O[C@H](CO)[C@@H](O)[C@H](O)[C@H]6O)[C@@](C)(CO[C@@H]6O[C@H](CO)[C@@H](O)[C@H](O)[C@H]6O)[C@@H]5CC[C@]43C)[C@H]2O)CO1 [Hosenkoside K]	58.2	–
COc1cc(O)cc(OC)c1 [3,5-Dimethoxyphenol]	32.7	–
COC(=O)C[C@](O)(CCCC(C)(C)O)C(=O)O[C@@H]1C(OC)=C[C@]23CCCN2CCc2cc4c(cc2[C@H]13)OCO4 [Homoharringtonine]	21	–
O=C(/C=C/c1ccc(O)c(O)c1)O[C@@H]1CC(C(=O)O)=C[C@@H](O)[C@H]1O [5-O-Caffeoylshikimic acid]	12	–
C=C[C@H]1CN2CC[C@H]1C[C@H]2[C@H](O)c1ccnc2ccccc12 [Cinchonidine]	13.4	–
O=C(O)CC(CC(=O)O)C(=O)O [Tricarballylic acid]	13.6	–
COC(=O)c1c(C)cc(OC(=O)c2c(C)cc(O)c(C=O)c2O)c(C)c1O [Atranorin]	8.5	–
OCC1=C[C@@H](O)[C@]2(O[C@@H]3O[C@H](CO)[C@@H](O)[C@H](O)[C@H]3O[C@@H]3O[C@H](CO)[C@@H](O)[C@H](O)[C@H]3O)C=CO[C@@H](O[C@@H]3O[C@H](CO)[C@@H](O)[C@H](O)[C@H]3O)[C@H]12 [Rehmannioside D]	9.2	–
CC1=CC=C(C(C)C)CC1 [α-Terpinene]	7.1	–
O=c1cc(-c2ccc(O)cc2)oc2c([C@@H]3O[C@H](CO)[C@@H](O)[C@H](O)[C@H]3O)c(O)c([C@@H]3O[C@H](CO)[C@@H](O)[C@H](O)[C@H]3O)c(O)c12 [Vicenin 2]	11.8	–
N#CCc1c[nH]c2ccccc12 [3-Indoleacetonitrile]	21.6	–
COc1cc(/C=C/C(=O)OC[C@H]2O[C@H](O[C@]3(CO)O[C@H](CO)[C@@H](O)[C@@H]3O)[C@H](O)[C@@H](O)[C@@H]2O)cc(OC)c1O [Sibiricose A1]	18.6	–
Nc1c(O)cccc1C(=O)O [3-Hydroxyanthranilic acid]	0	–
CC1=NCCc2c1[nH]c1cc(O)ccc21 [Harmalol (hydrochloride)]	22	–
COc1nccc(N)n1 [2-O-Methylcytosine]	0	–
COc1cc(/C=C/C(=O)NCC(O)c2ccc(O)cc2)ccc1O (centres unmarked) [N-Feruloyloctopamine]	7.9	–
C[C@@]12C=Cc3occc3[C@H]1CC[C@@]13C[C@@H](CC[C@H]12)[C@@](O)(CO)C3 [Kahweol]	6.3	–
COc1ccc2c3ccnc4ccc(=O)n(c2c1)c43 [9-Methoxycanthin-6-one]	21.1	–
C[C@@H]1C[C@H]2O[C@@]3(O[C@@H]2C(C)(C)O)[C@H](O)[C@@]2(C)[C@@H]4CC[C@H]5C(C)(C)[C@@H](O[C@@H]6OC[C@@H](O)[C@H](O)[C@H]6O)CC[C@@]56C[C@@]46CC[C@]2(C)[C@@H]13 [Cimigenoside]	8.8	–

Random excerpt: three entries already listed, in no set order.
Structure (SMILES)	229E Inhibition rate [%]	229E Inhibition rate (229E Inhibition rate, 24 h) [%]
O=c1cc(-c2ccc(O)cc2)oc2c([C@@H]3O[C@H](CO)[C@@H](O)[C@H](O)[C@H]3O)c(O)c([C@@H]3O[C@H](CO)[C@@H](O)[C@H](O)[C@H]3O)c(O)c12 [Vicenin 2]	11.8	–
COC(=O)c1c(C)cc(OC(=O)c2c(C)cc(O)c(C=O)c2O)c(C)c1O [Atranorin]	8.5	–
N#CCc1c[nH]c2ccccc12 [3-Indoleacetonitrile]	21.6	–
